Results are given in words; binding and its absence hold for the method and conditions named. Some results given as binding are weak or reduced against the parent protein; the word gives no strength.
B1: LIBC680574-1 (Fab, V domains shown)
VH: QVQLQESGPGLVKPSQTLSLTCTVSGGSIRRGGDYWAWIRQHPGKGLEWIGHVYYTGSTKYNPSFKDRATISVNTYKNQFSLKLSSVTAADTAVYYCARNYDTLTGYSYYYYGMDVWGQGTTVTVSS
VL: DIQMTQSPSSLSASVGDRVTITCRASQSISSYLNWYQQKPGKAPKLLIYGARRLGSGVPSRFSGSGSGTDFTLTISSLQPEDFATYYCQQYSSLPVTFGGGTKVEIKR
B2: LIBC680800-1 (Fab, V domains shown)
VH: QVQLQESGPGLVKPSQTLSLTCTVSGGSIRRGGDYWAWIRQHPGKGLEWIGHIYQTGSTNYNPRFKGRATISVNTYKNQFSLKLSSVTAADTAVYYCARNYDTLTGYSYYYYGMDVWGQGTTVTVSS
VL: DIQMTQSPSSLSASVGDRVTITCRASQSISSYLNWYQQKPGKAPKLLIYSARALSSGVPSRFSGSGSGTDFTLTISSLQPEDFATYYCQQYRKFPLTFGGGTKVEIKR
B3: LIBC680812-1 (Fab, V domains shown)
VH: QVQLQESGPGLVKPSQTLSLTCTVSGGSIRRGGDYWGWIRQHPGKGLEWIGHVYQTGSTKYNPSFKDRATISVNTYKNQFSLKLSSVTAADTAVYYCARNYDTLTGYSYYYYGMDVWGQGTTVTVSS
VL: DIQMTQSPSSLSASVGDRVTITCRASQSISSYLNWYQQKPGKAPKLLIYSARRLSSGVPSRFSGSGSGTDFTLTISSLQPEDFATYYCQQYRSYPITFGGGTKVEIKR
B4: LIBC681593-1 (Fab, V domains shown)
VH: QVQLQESGPGLVKPSQTLSLTCTVSGGSIRRGGDYWAWIRQHPGKGLEWIGHIYQTGSTNYNPRFKGRATISVNTYKNQFSLKLSSVTAADTAVYYCARNYDTLTGYSYYYYGMDVWGQGTTVTVSS
VL: DIQMTQSPSSLSASVGDRVTITCRASQSISSYLNWYQQKPGKAPKLLIYNARRLGSGVPSRFSGSGSGTDFTLTISSLQPEDFATYYCQQYRSSPVTFGGGTKVEIKR
B5: LIBC681594-1 (Fab, V domains shown)
VH: QVQLQESGPGLVKPSQTLSLTCTVSGGSIRRGGDYWAWIRQHPGKGLEWIGHIYQTGSTNYNPRFKGRATISVNTYKNQFSLKLSSVTAADTAVYYCARNYDTLTGYSYYYYGMDVWGQGTTVTVSS
VL: DIQMTQSPSSLSASVGDRVTITCRASQSISSYLNWYQQKPGKAPKLLIYKARKLSSGVPSRFSGSGSGTDFTLTISSLQPEDFATYYCQQFGSMPLTFGGGTKVEIKR
B6: LIBC673952-1 (Fab, V domains shown)
VH: QVQLQESGPGLVKPSQTLSLTCTVSGGSIRRGGDYWSWIRQHPGKGLEWIGHVYYTGQTTYNPSFRGRVTISVNTYKNQFSLKLSSVTAADTAVYYCARDYDILTGYSYYYYGLDVWGQGTTVTVSS
VL: DIVMTQSPLSLPVTPGEPASISCRSSQSLLHRSGYNYLDWYLQKPGQSPQLLIYQGSNRASGVPDRFSGSGSGTDFTLKISRVEAEDVGVYYCRQARALPRTFGQGTKVEIKR
B7: LIBC674090-1 (Fab, V domains shown)
VH: QVQLQESGPGLVKPSQTLSLTCTVSGGSIRRGGDYWSWIRQHPGKGLEWIGHIYYAGSTAYNPNFRGRVRISVNTYKNQFSLKLSSVTAADTAVYYCARGYDTSGYSYYYYGLDVWGQGTTVTVSS
VL: DIVMTQSPLSLPVTPGEPASISCRSSQSLLHRSGYNYLDWYLQKPGQSPQLLIYQGSNRASGVPDRFSGSGSGTDFTLKISRVEAEDVGVYYCMQSLQTPRTFGQGTKVEIKR
B8: LIBC674200-1 (Fab, V domains shown)
VH: QVQLQESGPGLVKPSQTLSLTCTVSGGSIRRGGDYWSWIRQHPGKGLEWIGHVYYTGQTAYNPNFRNRVRISVNTYKNQFSLKLSSVTAADTAVYYCARGYDVSGYSYYYYGMDVWGQGTTVTVSS
VL: DIVMTQSPLSLPVTPGEPASISCRSSQSLLHRSGYNYLDWYLQKPGQSPQLLIYLGSNRASGVPGRFSGSGSGTDFTLKISRVEAEDVGVYYCMQSLQTPRTFGQGTKVEIKR
B9: LIBC674229-1 (Fab, V domains shown)
VH: QVQLQESGPGLVKPSQTLSLTCTVSGGSIRRGGDYWSWIRQHPGKGLEWIGHIYQTGQTKYNPSFKGRVRISVNTYKNQFSLKLSSVTAADTAVYYCARGYDVSGYSYYYYGMDVWGQGTTVTVSS
VL: DIVMTQSPLSLPVTPGEPASISCRSSQSLLHRSGYNYLDWYLQKPGQSPQLLIYQGSNRASGVPDRFSGSGSGTDFTLKISRVEAEDVGVYYCMQSLQTPRTFGQGTKVEIKR

Chains of the proteins cited; added tags and fusions are not shown. Lines headed by an entry give the natural chain unless they say otherwise; changes in a name come on top.
UniProt P21554: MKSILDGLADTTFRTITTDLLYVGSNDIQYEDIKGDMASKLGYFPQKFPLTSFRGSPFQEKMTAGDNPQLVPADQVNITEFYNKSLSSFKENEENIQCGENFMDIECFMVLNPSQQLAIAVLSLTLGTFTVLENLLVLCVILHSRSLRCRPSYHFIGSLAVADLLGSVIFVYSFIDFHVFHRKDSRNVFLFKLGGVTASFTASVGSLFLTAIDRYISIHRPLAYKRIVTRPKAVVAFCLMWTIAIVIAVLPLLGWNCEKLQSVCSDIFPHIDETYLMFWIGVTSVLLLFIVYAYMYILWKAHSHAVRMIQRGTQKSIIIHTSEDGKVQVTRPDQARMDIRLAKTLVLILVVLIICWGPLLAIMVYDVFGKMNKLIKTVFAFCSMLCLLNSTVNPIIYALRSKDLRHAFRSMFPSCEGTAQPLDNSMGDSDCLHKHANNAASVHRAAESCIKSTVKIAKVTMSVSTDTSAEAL

Molecular target: GFP-fused huCB1-SMALP (human CB1 in styrene maleic acid lipoparticles) (human) (UniProt P21554)
Assay: flow cytometry, yeast-displayed Fab

binding, binds:
B1
B2
B3
B4
B5
B6
B7
B8
B9

Source: US20250277029A1, “CANNABINOID TYPE 1 RECEPTOR BINDING PROTEINS AND USES THEREOF” (AMGEN INC., priority 2022, published 2025)
